In US8952147B2 (Sanofi, priority 2009, dated 2015):

Assay: peptide synthesis
Settings: conjugation step
For “Allyl (2-{2-[2-(2-{4-[(2R,3R)-3-((S)-1-{(E)-(3S,10R,16S)-10-[3-chloro-4-methoxy-benzyl]-3-isobutyl-6,6-dimethyl-2,5,9,12-tetraoxo-1,4-dioxa-8,11-diazacyclohexadec-13-en-16-yl}ethyl)oxiranyl]benzylamino}ethoxy)ethoxy]ethoxy}ethoxy)propanoate”, the conjugation yield was 27%.
“FmocVal-Cit-PABAC-α-aminocryptophycin 77” showed a conjugation yield of 95%.

Same assay, conditions: late stage modification step
For “4-((2S,3S)-3-{(S)-1-[(E)-(3S,10R,16S)-10-(3-Chloro-4-methoxybenzyl)-3-isobutyl-6,6-dimethyl-2,5,9,12-tetraoxo-1,4-dioxa-8,11-diazacyclohexadec-13-en-16-yl]ethyl}oxiranyl)-benzyl[2-methyl-2-(pyridin-2-yldisulfanyl)propyl]methylcarbamate”, the step yield was 30%.
In the case of “(1-{4-[(2R,3R)-3-((S)-1-{(E)-(3S,10R,16S)-10-[3-Chloro-4-methoxybenzyl]-3-isobutyl-6,6-dimethyl-2,5,9,12-tetraoxo-1,4-dioxa-8,11-diazacyclohexadec-13-en-16-yl}ethyl)-oxiranyl]benzyl}-1H-1,2,3-triazol-4-yl)butanoic acid”, the step yield was 76%.
Work on “(4-{1-[(4-{(2R,3R)-3-[(S)-1-((E)-(3S,10R,16S)-10-{3-Chloro-4-methoxybenzyl}-3-isobutyl-6,6-dimethyl-2,5,9,12-tetraoxo-1,4-dioxa-8,11-diazacyclohexadec-13-en-16-yl)ethyl]-oxiranyl}benzyl)methylamino]methyl}-1,2,3-triazol-1-yl)butanoic acid” yielded a step yield of 80%.
For “(4-{4-[(2R,3R)-3-((S)-1-{(E)-(3S,10R,16S)-10-[3-Chloro-4-methoxybenzyl]-3-isobutyl-6,6-dimethyl-2,5,9,12-tetraoxo-1,4-dioxa-8,11-diazacyclohexadec-13-en-16-yl}ethyl)-oxiranyl]benzyl}piperazin-1-yl)acetic acid”, the step yield was 55%.
With “(E)-(3S,6R,10R,16S)-10-(3-Chloro-4-methoxybenzyl)-3-isobutyl-6-methyl-16-[(S)-1-((2R,3R)-3-{4-[4-(4-methyl-4-methyldisulfanylpentanoyl)piperazin-1-ylmethyl]phenyl}oxiranyl)-ethyl]-1,4-dioxa-8,11-diazacyclohexadec-13-ene-2,5,9,12-tetraone” the step yield was 80%.
Substance “(E)-(3S,6R,10R,16S)-10-(3-Chloro-4-methoxybenzyl)-16-{(S)-1-[(R)-3-(4-chloro-methylphenyl)oxiranyl]ethyl}-3-isobutyl-6-methyl-1,4-dioxa-8,11-diazacyclohexadec-13-ene-2,5,9,12-tetraone” has a step yield of 79%.
For “(E)-(3S,10R,16S)-10-(3-Chloro-4-methoxybenzyl)-3-isobutyl-16-[(S)-1-((2R,3R)-3-{4-[4-({2-[2-(2-{2-methyl[2-mercapto-2-methylpropyl]aminoethoxy}ethoxy)ethoxy]ethyl}-methylamino)methyl]phenyl}oxiranyl)ethyl]-6,6-dimethyl-1,4-dioxa-8,11-diazacyclohexadec-13-ene-2,5,9,12-tetraone”, the step yield was 71%.
Work on “(E)-(3S,10R,16S)-16-{(S)-1-[(2R,3R)-3-(4-Aminomethylphenyl)oxiranyl]ethyl}-10-(3-chloro-4-methoxybenzyl)-3-isobutyl-6,6-dimethyl-1,4-dioxa-8,11-diazacyclohexadec-13-ene-2,5,9,12-tetraone” yielded a step yield of 59%.
With “(E)-(3S,10R,16S)-16-{(S)-1-[(2R,3R)-3-(4-Azidomethylphenyl)oxiranyl]ethyl}-10-(3-chloro-4-methoxybenzyl)-3-isobutyl-6,6-dimethyl-1,4-dioxa-8,11-diazacyclohexadec-13-ene-2,5,9,12-tetraone” the step yield was 74%.
Work on “(E)-(3S,10R,16S)-16-{(S)-1-[(2S,3S)-3-(4-Aminomethylphenyl)oxiranyl]ethyl}-10-(3-chloro-4-methoxybenzyl)-3-isobutyl-6,6-dimethyl-1,4-dioxa-8,11-diazacyclohexadec-13-ene-2,5,9,12-tetraone” yielded a step yield of 99%.
Work on “(E)-(3S,10R,16S)-16-{(S)-1-[(2S,3S)-3-(4-Azidomethylphenyl)oxiranyl]ethyl}-10-(3-chloro-4-methoxybenzyl)-3-isobutyl-6,6-dimethyl-1,4-dioxa-8,11-diazacyclohexadec-13-ene-2,5,9,12-tetraone” yielded a step yield of 64%.
Work on “Allyl (4-{4-[(2R,3R)-3-((S)-1-{(E)-(3S,10R,16S)-10-[3-chloro-4-methoxybenzyl]-3-isobutyl-6,6-dimethyl-2,5,9,12-tetraoxo-1,4-dioxa-8,11-diazacyclohexadec-13-en-16-yl}ethyl)-oxiranyl]benzyl}piperazin-1-yl)acetate” yielded a step yield of 56%.
Work on “Glutaric acid-Val-Cit-PABAC-α-aminocryptophycin 72” yielded a step yield of 48%.
With “Glutaric acid-Val-Cit-PABAC-α-aminocryptophycin 77” the step yield was 104% crude.
Work on “Methyl (1-{4-[(2R,3R)-3-((S)-1-{(E)-(3S,10R,16S)-10-[3-chloro-4-methoxybenzyl]-3-isobutyl-6,6-dimethyl-2,5,9,12-tetraoxo-1,4-dioxa-8,11-diazacyclohexadec-13-en-16-yl}ethyl)-oxiranyl]benzyl}-1H-1,2,3-triazol-4-yl)butanoate” yielded a step yield of 98%.
“Methyl (4-{1-[(4-{(2R,3R)-3-[(S)-1-((E)-(3S,10R,16S)-10-{3-chloro-4-methoxy-benzyl}-3-isobutyl-6,6-dimethyl-2,5,9,12-tetraoxo-1,4-dioxa-8,11-diazacyclohexadec-13-en-16-yl)ethyl]oxiranyl}benzyl)methylamino]methyl}-1,2,3-triazol-1-yl)butanoate” gave a step yield of 62%.
“Methyl (4-{4-[(2R,3R)-3-((S)-1-{(E)-(3S,10R,16S)-10-[3-Chloro-4-methoxy-benzyl]-3-isobutyl-6,6-dimethyl-2,5,9,12-tetraoxo-1,4-dioxa-8,11-diazacyclohexadec-13-en-16-yl}ethyl)oxiranyl]benzyl}piperazin-1-yl)acetate” gave a step yield of 34%.
With Val-Cit-PABAC-α-aminocryptophycin 72 the step yield was 82%.
With Val-Cit-PABAC-α-aminocryptophycin 77 the step yield was 60%.

Same assay, conditions: late stage modification step; run 1
In the case of “(E)-(3S,10R,16S)-10-(3-Chloro-4-methoxybenzyl)-16-{(S)-1-[(R)-3-(4-chloro-methylphenyl)oxiranyl]ethyl}-3-isobutyl-6,6-dimethyl-1,4-dioxa-8,11-diazacyclohexadec-13-ene-2,5,9,12-tetraone”, the step yield was 81%.

Same assay, conditions: late stage modification step; run 2
Substance “(E)-(3S,10R,16S)-10-(3-Chloro-4-methoxybenzyl)-16-{(S)-1-[(R)-3-(4-chloro-methylphenyl)oxiranyl]ethyl}-3-isobutyl-6,6-dimethyl-1,4-dioxa-8,11-diazacyclohexadec-13-ene-2,5,9,12-tetraone” has a step yield of 87%.
